The list is a part of this screen's results and no random one: it gathers tests that were run many times, whatever their T/C, doses with no T/C, and many T/C values between a quarter and a half above the control. Other doses and runs of a compound stand elsewhere. T/C is the treated group as % of the vehicle group. Schedules are NCI's codes, taken here to give the interval after Q, in days (D) or hours (H), and the number of doses after X. Some T/C values are followed by the survivors on the day toxicity was checked, most often the fifth; where none is given, no animal had died by that day. Some entries hold several experiments; the results are listed from low to high. Some entries give survivors of the animals treated and no T/C: the source files T/C as zero there, which appears to mark a toxic dose or a test without result, not a measured value. Some doses without a T/C left all or most animals alive at the check, yet need not have been tolerated: the source hardly ever lists a survival T/C far under the control, and the zero likely stands for such cases as well. Counts of survivors are from the toxicity check (mostly the fifth day) where no day follows; animals may have died later. Where survival is the endpoint, the PubChem record calls one and a half times the control and up active, and a quarter to a half above the control has no call in these data; cut-offs in other NCI protocols can differ.
Test system: BDF1 mice, colon carcinoma 38 sc, T/C %
Assay: NCI In Vivo Anticancer Drug Screen. Data for tumor model Colon Carcinoma 38 (subcutaneous) in B6D2F1 (BDF1) mice
Procedure, shortened: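 Transplantable tumor in mice; compound-treated vs vehicle-dosed controls. Measured survival or tumor size; value = T ÷ C.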

[1] = T/C endpoint: median tumor weight (est.), dose: 400.0 mg/kg/injection, schedule: Q07DX002 (ip), vehicle: saline with Tween-80, higher T/C = larger tumour
[2] = T/C endpoint: median survival time, dose: 400.0 mg/kg/injection, schedule: Q01DX008 (oral), vehicle: saline with Tween-80, higher T/C = longer survival

`[Cl][Mn][Cl]` was tested, and the T/C (T/C endpoint: median tumor weight (est.), dose: 2.0 mg/kg/injection, schedule: Q07DX002 (ip), vehicle: saline, evaluated on day 20, higher T/C = larger tumour) was 143 % of control, the T/C (T/C endpoint: median tumor weight (est.), dose: 4.0 mg/kg/injection, schedule: Q07DX002 (ip), vehicle: saline, evaluated on day 20, higher T/C = larger tumour) was 139 % of control and the T/C (T/C endpoint: median tumor weight (est.), dose: 8.0 mg/kg/injection, schedule: Q07DX002 (ip), vehicle: saline, evaluated on day 20, higher T/C = larger tumour) was 146 % of control. The T/C (T/C endpoint: median tumor weight (est.), dose: 16.0 mg/kg/injection, schedule: Q07DX002 (ip), vehicle: saline, evaluated on day 20, higher T/C = larger tumour) was 130 and 133 % of control [9 of 10 alive on day 20], the T/C (T/C endpoint: median tumor weight (est.), dose: 24.0 mg/kg/injection, schedule: Q07DX002 (ip), vehicle: saline, evaluated on day 20, higher T/C = larger tumour) was 137 % of control and the T/C (T/C endpoint: median tumor weight (est.), dose: 64.0 mg/kg/injection, schedule: Q07DX002 (ip), vehicle: saline, evaluated on day 20, higher T/C = larger tumour) was 135 % of control [9 of 10 alive on day 20]. The survivor count (T/C endpoint: median tumor weight (est.), dose: 128.0 mg/kg/injection, schedule: Q07DX002 (ip), vehicle: saline, higher T/C = larger tumour) was 6 of 10 on day 20 and the survivor count (T/C endpoint: median tumor weight (est.), dose: 192.0 mg/kg/injection, schedule: Q07DX002 (ip), vehicle: saline, higher T/C = larger tumour) was 0 of 10 on day 20.

With `COC1=C(OC)C(=O)C(Sc2ccc3ccccc3c2)=CC1=O` the survivor count (T/C endpoint: median tumor weight (est.), dose: 200.0 mg/kg/injection, schedule: Q07DX002 (ip), vehicle: saline with Tween-80, higher T/C = larger tumour) was 3 of 10 on day 20 and the survivor count [1] was 0 of 10 on day 20.

With `C[n+]1c(-c2cccc(OCCOCCOc3cccc(-c4c5cc(N)ccc5c5ccc(N)cc5[n+]4C)c3)c2)c2cc(N)ccc2c2ccc(N)cc21` the survivor count (T/C endpoint: median tumor weight (est.), dose: 32.0 mg/kg/injection, schedule: Q07DX002 (ip), vehicle: water, higher T/C = larger tumour) was 0 of 10 on day 20, the survivor count (T/C endpoint: median tumor weight (est.), dose: 64.0 mg/kg/injection, schedule: Q07DX002 (ip), vehicle: water, higher T/C = larger tumour) was 0 of 10 on day 20 and the survivor count (T/C endpoint: median tumor weight (est.), dose: 128.0 mg/kg/injection, schedule: Q07DX002 (ip), vehicle: water, higher T/C = larger tumour) was 0 of 10 on day 20.

With `CC1=C(C)C(=O)O[C@@H]([C@](C)(O)[C@]2(O)CC[C@@]3(O)[C@@H]4C[C@H]5O[C@]56CC=CC(=O)[C@]6(C)[C@H]4CC[C@]23C)C1` the T/C (T/C endpoint: median tumor weight (est.), dose: 50.0 mg/kg/injection, schedule: Q07DX002 (ip), vehicle: saline, evaluated on day 20, higher T/C = larger tumour) was 126 % of control, the survivor count (T/C endpoint: median tumor weight (est.), dose: 400.0 mg/kg/injection, schedule: Q07DX002 (ip), vehicle: saline, higher T/C = larger tumour) was 4 of 10 on day 20 and the survivor count (T/C endpoint: median tumor weight (est.), dose: 450.0 mg/kg/injection, schedule: Q07DX002 (ip), vehicle: saline, higher T/C = larger tumour) was 1 of 10 on day 20. For the same compound, the survivor count (T/C endpoint: median tumor weight (est.), dose: 900.0 mg/kg/injection, schedule: Q07DX002 (ip), vehicle: saline, higher T/C = larger tumour) was 0 of 10 on day 20.

With `Nc1ccc2c(c1)CN1C(=O)c3ccccc3C1=N2` the T/C (T/C endpoint: median survival time, dose: 100.0 mg/kg/injection, schedule: Q01DX008 (oral), vehicle: saline with Tween-80, higher T/C = longer survival) was 141 % of control, the T/C (T/C endpoint: median survival time, dose: 200.0 mg/kg/injection, schedule: Q01DX008 (oral), vehicle: saline with Tween-80, higher T/C = longer survival) was 141 % of control and the T/C [2] was 141 % of control [7 of 10 alive on day 21]. For the same compound, the survivor count [2] was 9 of 10 on day 21, the T/C (T/C endpoint: median survival time, dose: 600.0 mg/kg/injection, schedule: Q07DX002 (oral), vehicle: saline with Tween-80, higher T/C = longer survival) was 141 % of control and the T/C (T/C endpoint: median survival time, dose: 800.0 mg/kg/injection, schedule: Q07DX002 (oral), vehicle: saline with Tween-80, higher T/C = longer survival) was 141 % of control. The T/C (T/C endpoint: median survival time, dose: 1000.0 mg/kg/injection, schedule: Q07DX002 (oral), vehicle: saline with Tween-80, higher T/C = longer survival) was 141 % of control, the T/C (T/C endpoint: median tumor weight (est.), dose: 25.0 mg/kg/injection, schedule: Q07DX002 (ip), vehicle: saline with Tween-80, evaluated on day 20, higher T/C = larger tumour) was 20, 37 [9 of 10 alive on day 20], 53, 72, 76, 90, 94 % of control and the T/C (T/C endpoint: median tumor weight (est.), dose: 50.0 mg/kg/injection, schedule: Q07DX002 (ip), vehicle: saline with Tween-80, evaluated on day 20, higher T/C = larger tumour) was 27, 32, 52, 60, 64, 65, 83, 88 % of control. The T/C (T/C endpoint: median tumor weight (est.), dose: 100.0 mg/kg/injection, schedule: Q07DX002 (ip), vehicle: saline with Tween-80, evaluated on day 20, higher T/C = larger tumour) was 17, 23, 24, 25, 44, 50, 60 % of control, the survivor count (T/C endpoint: median tumor weight (est.), dose: 200.0 mg/kg/injection, schedule: Q07DX002 (ip), vehicle: other, higher T/C = larger tumour) was 1 of 10 on day 20 and the T/C (T/C endpoint: median tumor weight (est.), dose: 200.0 mg/kg/injection, schedule: Q07DX002 (ip), vehicle: saline with Tween-80, evaluated on day 20, higher T/C = larger tumour) was 3, 3 [9 of 10 alive on day 20], 4, 8, 19, 53 % of control. For the same compound, the survivor count (T/C endpoint: median tumor weight (est.), dose: 400.0 mg/kg/injection, schedule: Q07DX002 (ip), vehicle: other, higher T/C = larger tumour) was 0 of 8 on day 20 and 6 of 10 on day 20, the T/C (T/C endpoint: median tumor weight (est.), dose: 400.0 mg/kg/injection, schedule: Q07DX002 (ip), vehicle: saline with Tween-80, evaluated on day 20, higher T/C = larger tumour) was 26 % of control [8 of 10 alive on day 20] and the survivor count [1] was 1 of 10 on day 20, 2 of 10 on day 20, 5 of 10 on day 20, 6 of 10 on day 20. The survivor count (T/C endpoint: median tumor weight change, dose: 237.4 mg/kg/injection, schedule: Q01DX009 (oral), vehicle: saline with Tween-80, higher T/C = larger tumour) was 5 of 10 on day 20, the survivor count (T/C endpoint: median tumor weight change, dose: 355.9 mg/kg/injection, schedule: Q01DX009 (oral), vehicle: saline with Tween-80, higher T/C = larger tumour) was 0 of 10 on day 20 and the survivor count (T/C endpoint: median tumor weight change, dose: 533.6 mg/kg/injection, schedule: Q01DX005 (oral), vehicle: saline with Tween-80, higher T/C = larger tumour) was 3 of 10 on day 20.

From PubChem BioAssay AID212 (DTP/NCI, 2004)
